# Experimental data reported in patent US20240295559A1, “IMMUNOHISTOCHEMISTRY (IHC) PROTOCOLS AND METHODS FOR DIAGNOSING AND TREATING CANCER” (AGILENT TECHNOLOGIES, INC., priority 2020, published 2024).
# Like-named read-outs stand apart in the source and are kept apart here. At least one compound was matched to its structure with a doubt left.
# Experiments:
# Ki-67 tumor expression = settings: cited from earlier work
# [1] = system: high risk, node positive, early stage, hormone receptor positive, human epidermal receptor 2 negative, breast cancer; assay: Phase 3 study of abemaciclib with standard adjuvant endocrine therapy; type: in vivo
# [2] = system: high risk, node positive, early stage, hormone receptor positive, human epidermal receptor 2 negative, breast cancer; settings: adjuvant; 5,637 high-risk early breast cancer patients; cited from earlier work
smiles,measurement,setting,value
CCN1CCN(Cc2ccc(Nc3ncc(F)c(-c4cc(F)c5nc(C)n(C(C)C)c5c4)n3)nc2)CC1 [abemaciclib],Change in Ki-67 tumor expression from baseline to 2 weeks post-treatment,Ki-67 tumor expression; abemaciclib alone compared with anastrozole alone,greater decrease in Ki-67 tumor expression
same,Change in Ki-67 tumor expression from baseline to 2 weeks post-treatment,Ki-67 tumor expression; abemaciclib in combination with anastrozole compared with anastrozole alone,greater decrease in Ki-67 tumor expression
same,Response to treatment,[1]; subjects with Ki-67 scores (%) above the threshold,respond favorably
same,Response to treatment,[1]; subjects with a Ki-67 score (%) of 20% or greater,respond favorably
same,Efficacy at pre-defined interim analysis,[2],positive efficacy results
